Some of the results follow.
compound: Cc1sc2c(c1C)C(c1ccc(Cl)cc1)=N[C@@H](CC(=O)OC(C)(C)C)c1nnc(C)n1-2; test: log2 fold change, soluble protein after heating vs DMSO (PISA); higher = thermal stabilisation; K562 lysate, 10 uM; active = over 0.2 and 3.5 SD of the protein, either way, in both replicates (recomputed)
Summary of the method: (§1)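 K562 pellets were dounce-homogenised in PBS pH 7.4 containing 1 mM MgCl2, and the crude extract, at 1 mg/mL protein, was exposed to 10 μM compound for 30 min. Aliquots were heated for 3 min across 48°C-58°C, pooled, brought to 0.5% NP-40 at 4°C and spun at 21,000xg for 90 min, with the supernatant taken as soluble protein. TMTpro 16plex LC-MS/MS with equalised channel sums quantified that protein. Values are log-two fold changes in thermal stability relative to solvent controls, taken from duplicates.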

Chains of the proteins cited; added tags and fusions are not shown. Lines headed by an entry give the natural chain unless they say otherwise; changes in a name come on top.
UniProt O60488: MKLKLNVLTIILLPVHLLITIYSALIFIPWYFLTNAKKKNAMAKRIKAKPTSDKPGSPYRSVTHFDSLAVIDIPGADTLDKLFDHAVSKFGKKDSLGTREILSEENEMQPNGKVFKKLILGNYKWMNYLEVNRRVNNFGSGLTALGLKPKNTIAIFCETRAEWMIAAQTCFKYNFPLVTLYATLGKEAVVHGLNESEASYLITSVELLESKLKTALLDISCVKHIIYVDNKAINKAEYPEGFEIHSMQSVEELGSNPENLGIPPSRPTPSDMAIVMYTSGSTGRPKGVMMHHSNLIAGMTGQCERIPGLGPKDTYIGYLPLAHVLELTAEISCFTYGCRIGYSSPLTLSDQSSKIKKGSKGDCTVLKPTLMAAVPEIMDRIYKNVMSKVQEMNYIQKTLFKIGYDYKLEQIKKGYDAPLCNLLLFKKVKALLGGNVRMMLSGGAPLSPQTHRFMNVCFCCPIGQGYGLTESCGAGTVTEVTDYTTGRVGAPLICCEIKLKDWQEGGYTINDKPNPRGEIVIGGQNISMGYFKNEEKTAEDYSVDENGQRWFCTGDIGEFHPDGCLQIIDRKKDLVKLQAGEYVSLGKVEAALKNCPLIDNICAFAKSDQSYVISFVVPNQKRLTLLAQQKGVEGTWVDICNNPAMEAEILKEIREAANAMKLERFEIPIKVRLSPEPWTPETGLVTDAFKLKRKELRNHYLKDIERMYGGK
UniProt Q9NUB1: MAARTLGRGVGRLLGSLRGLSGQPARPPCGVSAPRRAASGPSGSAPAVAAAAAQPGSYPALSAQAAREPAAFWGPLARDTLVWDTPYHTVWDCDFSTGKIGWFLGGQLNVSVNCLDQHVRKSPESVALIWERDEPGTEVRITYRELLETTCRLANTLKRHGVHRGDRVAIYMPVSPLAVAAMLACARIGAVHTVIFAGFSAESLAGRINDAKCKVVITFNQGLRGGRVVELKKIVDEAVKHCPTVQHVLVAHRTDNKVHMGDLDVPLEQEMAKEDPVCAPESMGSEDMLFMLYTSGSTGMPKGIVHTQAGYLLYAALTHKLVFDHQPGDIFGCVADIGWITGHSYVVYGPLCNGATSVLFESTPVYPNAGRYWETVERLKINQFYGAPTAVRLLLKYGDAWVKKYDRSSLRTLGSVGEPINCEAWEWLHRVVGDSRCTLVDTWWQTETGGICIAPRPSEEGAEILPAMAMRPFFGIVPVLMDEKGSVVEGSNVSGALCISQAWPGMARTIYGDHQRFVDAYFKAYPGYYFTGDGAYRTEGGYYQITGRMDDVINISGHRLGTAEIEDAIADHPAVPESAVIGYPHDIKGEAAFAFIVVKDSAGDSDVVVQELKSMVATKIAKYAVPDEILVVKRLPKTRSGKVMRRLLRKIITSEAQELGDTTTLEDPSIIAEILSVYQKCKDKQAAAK
UniProt Q96BJ3: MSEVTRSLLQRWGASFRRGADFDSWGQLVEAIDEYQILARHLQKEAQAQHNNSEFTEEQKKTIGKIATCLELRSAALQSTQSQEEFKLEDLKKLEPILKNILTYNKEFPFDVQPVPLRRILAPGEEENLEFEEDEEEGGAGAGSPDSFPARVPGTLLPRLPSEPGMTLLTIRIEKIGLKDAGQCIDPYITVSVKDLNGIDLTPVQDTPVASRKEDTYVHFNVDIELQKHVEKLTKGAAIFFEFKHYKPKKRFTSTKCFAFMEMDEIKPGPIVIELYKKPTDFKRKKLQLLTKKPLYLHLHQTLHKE
UniProt P35611: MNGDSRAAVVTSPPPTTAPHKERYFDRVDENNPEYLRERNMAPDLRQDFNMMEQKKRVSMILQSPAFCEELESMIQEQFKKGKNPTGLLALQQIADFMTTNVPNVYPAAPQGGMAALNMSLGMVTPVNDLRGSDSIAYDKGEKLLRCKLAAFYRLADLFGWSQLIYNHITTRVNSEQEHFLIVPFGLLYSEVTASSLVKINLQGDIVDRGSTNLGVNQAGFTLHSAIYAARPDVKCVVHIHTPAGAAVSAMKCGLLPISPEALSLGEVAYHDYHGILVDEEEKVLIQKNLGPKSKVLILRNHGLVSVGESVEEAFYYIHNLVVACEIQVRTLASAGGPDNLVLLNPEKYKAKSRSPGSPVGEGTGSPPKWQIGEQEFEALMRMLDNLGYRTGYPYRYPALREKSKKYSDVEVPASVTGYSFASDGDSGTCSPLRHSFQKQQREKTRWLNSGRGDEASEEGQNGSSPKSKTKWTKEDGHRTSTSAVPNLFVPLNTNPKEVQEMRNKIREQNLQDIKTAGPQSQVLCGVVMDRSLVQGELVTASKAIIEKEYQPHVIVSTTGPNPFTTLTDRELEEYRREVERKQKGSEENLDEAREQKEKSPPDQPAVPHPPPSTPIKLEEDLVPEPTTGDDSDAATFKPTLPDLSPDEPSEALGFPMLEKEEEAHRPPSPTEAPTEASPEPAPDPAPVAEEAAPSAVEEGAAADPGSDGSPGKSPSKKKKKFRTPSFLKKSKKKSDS
UniProt O43572: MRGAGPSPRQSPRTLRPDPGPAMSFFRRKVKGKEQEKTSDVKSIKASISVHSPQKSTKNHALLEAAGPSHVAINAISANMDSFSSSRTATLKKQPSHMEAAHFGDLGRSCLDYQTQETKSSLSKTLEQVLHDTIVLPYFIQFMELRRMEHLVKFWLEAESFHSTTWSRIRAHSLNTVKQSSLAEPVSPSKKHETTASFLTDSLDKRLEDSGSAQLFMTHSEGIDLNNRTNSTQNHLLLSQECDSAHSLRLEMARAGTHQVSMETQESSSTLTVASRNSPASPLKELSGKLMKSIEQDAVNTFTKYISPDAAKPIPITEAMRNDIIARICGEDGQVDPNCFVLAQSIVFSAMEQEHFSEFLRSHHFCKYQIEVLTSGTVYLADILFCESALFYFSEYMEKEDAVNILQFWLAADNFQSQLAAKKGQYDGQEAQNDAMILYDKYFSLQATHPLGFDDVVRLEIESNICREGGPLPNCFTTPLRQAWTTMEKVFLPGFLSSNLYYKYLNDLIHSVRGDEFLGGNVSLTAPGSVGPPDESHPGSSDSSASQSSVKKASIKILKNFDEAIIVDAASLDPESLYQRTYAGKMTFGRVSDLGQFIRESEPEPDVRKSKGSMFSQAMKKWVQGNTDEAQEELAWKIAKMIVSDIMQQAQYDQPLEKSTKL
UniProt Q9ULC5: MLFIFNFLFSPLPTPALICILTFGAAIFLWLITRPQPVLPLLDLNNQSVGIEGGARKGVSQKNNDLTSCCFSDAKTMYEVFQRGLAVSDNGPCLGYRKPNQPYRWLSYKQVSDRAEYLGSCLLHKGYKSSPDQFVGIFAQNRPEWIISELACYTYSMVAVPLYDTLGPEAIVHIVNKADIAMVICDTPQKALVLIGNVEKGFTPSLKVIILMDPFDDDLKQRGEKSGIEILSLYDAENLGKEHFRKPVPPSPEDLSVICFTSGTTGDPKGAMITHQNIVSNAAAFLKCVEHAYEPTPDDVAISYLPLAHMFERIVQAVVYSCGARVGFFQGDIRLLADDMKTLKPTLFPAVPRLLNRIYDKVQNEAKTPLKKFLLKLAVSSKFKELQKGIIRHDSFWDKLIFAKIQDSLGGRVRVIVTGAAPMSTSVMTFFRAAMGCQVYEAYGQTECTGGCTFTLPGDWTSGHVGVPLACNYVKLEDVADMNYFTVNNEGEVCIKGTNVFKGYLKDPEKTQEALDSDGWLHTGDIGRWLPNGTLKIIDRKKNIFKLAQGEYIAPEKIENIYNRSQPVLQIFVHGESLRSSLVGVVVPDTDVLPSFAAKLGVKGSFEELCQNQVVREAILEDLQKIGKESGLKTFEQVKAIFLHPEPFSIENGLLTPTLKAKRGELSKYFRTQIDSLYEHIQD
UniProt Q9BRQ8: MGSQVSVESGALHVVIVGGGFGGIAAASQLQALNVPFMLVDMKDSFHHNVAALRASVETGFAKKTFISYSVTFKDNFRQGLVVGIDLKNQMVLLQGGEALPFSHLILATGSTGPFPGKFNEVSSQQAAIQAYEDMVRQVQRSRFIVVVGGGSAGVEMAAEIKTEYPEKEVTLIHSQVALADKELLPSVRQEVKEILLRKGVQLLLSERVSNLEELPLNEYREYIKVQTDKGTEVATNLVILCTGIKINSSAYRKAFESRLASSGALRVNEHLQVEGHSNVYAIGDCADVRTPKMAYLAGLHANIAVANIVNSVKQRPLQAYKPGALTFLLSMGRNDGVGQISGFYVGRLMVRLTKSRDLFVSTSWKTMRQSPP
UniProt O43865, whole entry, looked up: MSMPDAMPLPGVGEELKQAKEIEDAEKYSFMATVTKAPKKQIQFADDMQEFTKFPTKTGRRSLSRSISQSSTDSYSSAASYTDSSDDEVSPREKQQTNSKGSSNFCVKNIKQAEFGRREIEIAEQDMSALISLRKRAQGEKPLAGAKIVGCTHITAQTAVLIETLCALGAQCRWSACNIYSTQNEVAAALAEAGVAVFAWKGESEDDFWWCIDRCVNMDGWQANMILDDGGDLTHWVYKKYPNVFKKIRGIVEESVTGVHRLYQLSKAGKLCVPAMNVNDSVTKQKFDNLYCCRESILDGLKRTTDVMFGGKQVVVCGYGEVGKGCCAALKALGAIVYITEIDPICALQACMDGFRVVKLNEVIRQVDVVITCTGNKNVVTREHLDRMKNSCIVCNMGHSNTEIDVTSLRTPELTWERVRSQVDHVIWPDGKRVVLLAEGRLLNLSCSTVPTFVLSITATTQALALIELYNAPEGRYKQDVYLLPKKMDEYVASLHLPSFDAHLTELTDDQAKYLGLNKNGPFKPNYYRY
UniProt Q9BRR6: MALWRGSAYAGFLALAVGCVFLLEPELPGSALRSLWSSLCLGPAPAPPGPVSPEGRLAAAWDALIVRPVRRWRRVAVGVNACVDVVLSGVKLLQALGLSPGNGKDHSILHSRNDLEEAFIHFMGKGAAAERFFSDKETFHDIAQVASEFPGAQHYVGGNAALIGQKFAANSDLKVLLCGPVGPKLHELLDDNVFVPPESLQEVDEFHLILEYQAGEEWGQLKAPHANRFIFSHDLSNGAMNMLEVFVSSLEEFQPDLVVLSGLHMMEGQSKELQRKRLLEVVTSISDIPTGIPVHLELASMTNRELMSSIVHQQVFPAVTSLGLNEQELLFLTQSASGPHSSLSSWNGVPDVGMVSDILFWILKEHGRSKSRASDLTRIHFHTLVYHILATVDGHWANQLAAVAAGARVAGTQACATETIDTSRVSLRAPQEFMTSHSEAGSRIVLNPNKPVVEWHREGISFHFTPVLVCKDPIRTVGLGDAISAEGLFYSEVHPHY
UniProt Q9H568: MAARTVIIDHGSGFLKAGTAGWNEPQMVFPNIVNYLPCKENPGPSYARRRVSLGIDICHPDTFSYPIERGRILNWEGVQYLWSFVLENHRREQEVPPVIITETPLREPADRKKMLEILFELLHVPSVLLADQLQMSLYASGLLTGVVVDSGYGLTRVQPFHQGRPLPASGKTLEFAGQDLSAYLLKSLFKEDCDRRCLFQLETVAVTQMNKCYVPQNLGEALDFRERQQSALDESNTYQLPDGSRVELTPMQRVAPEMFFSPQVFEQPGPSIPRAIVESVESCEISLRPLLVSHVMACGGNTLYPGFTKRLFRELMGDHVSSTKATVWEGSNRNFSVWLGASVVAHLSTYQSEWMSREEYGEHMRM
UniProt Q9UIJ7: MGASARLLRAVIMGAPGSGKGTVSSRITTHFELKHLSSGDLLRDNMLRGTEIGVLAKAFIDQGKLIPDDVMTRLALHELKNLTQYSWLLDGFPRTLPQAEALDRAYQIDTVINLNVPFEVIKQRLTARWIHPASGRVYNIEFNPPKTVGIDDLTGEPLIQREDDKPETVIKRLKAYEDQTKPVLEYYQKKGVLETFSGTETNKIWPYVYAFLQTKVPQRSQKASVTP
UniProt Q9NZD4: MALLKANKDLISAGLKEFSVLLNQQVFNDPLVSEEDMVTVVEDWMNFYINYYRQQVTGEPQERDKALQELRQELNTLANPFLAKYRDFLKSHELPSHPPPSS
UniProt Q8N302: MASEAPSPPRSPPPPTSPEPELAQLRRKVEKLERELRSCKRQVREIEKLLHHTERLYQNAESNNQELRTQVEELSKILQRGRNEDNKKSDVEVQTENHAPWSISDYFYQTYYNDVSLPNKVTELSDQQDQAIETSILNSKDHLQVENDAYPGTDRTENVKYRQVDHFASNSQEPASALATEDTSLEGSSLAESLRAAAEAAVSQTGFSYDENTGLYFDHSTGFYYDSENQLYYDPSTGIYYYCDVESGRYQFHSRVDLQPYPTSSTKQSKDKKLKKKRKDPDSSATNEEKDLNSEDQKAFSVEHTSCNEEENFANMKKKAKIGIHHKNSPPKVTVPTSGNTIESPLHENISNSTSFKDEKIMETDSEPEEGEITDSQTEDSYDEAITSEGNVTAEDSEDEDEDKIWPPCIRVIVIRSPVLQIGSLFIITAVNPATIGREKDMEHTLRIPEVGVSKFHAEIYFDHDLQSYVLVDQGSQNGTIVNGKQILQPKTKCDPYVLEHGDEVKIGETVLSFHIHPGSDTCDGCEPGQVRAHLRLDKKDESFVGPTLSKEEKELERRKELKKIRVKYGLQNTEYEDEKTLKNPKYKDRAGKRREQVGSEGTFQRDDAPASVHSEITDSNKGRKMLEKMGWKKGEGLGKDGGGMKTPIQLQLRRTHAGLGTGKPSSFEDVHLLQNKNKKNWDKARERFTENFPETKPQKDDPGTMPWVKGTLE

Question: For AHSA1 (UniProt O95433), which log2 fold change is on record?
Answer: inactive: -0.012

Question: Which log2 fold change does the source give for ACTR3 (UniProt P61158) here?
Answer: inactive: 0.024

Question: How did the log2 fold change turn out when ACSL4 (UniProt O60488) was run?
Answer: inactive: -0.106

Question: Which log2 fold change does the source give for ACSS1 (UniProt Q9NUB1) here?
Answer: inactive: 0.089

Question: How did the log2 fold change turn out when AFAP1L1 (UniProt Q8TED9) was run?
Answer: inactive: -0.29

Question: AIDA (UniProt Q96BJ3) was tested. Which log2 fold change did it give?
Answer: inactive: -0.133

Question: For AIP (UniProt O00170), which log2 fold change is on record?
Answer: inactive: 0.025

Question: How did the log2 fold change turn out when ACOX3 (UniProt O15254) was run?
Answer: inactive: 0.087

Question: AHCY (UniProt P23526) was tested. Which log2 fold change did it give?
Answer: inactive: 0.022

Question: For ACTR3B (UniProt Q9P1U1), which log2 fold change is on record?
Answer: inactive: -0.009

Question: With ADD1 isoform 4 (UniProt P35611) as the target, how does the log2 fold change read?
Answer: inactive: -0.099

Question: How did the log2 fold change turn out when AKAP10 (UniProt O43572) was run?
Answer: inactive: -0.026

Question: Which log2 fold change does the source give for AFDN (UniProt J3KN01) here?
Answer: inactive: 0.023

Question: ACSL5 isoform 3 (UniProt Q9ULC5) was tested. Which log2 fold change did it give?
Answer: inactive: 0.009

Question: For AKR7A2 (UniProt O43488), which log2 fold change is on record?
Answer: inactive: 0.027

Question: AKR1B1 (UniProt P15121) was tested. Which log2 fold change did it give?
Answer: inactive: -0.146

Question: How did the log2 fold change turn out when ADD1 isoform 3 (UniProt P35611) was run?
Answer: inactive: -0.021

Question: For AEBP2 (UniProt Q6ZN18), which log2 fold change is on record?
Answer: inactive: -0.032

Question: Which log2 fold change does the source give for AIFM2 (UniProt Q9BRQ8) here?
Answer: inactive: -0.007

Question: With ADAM15 (UniProt Q13444) as the target, how does the log2 fold change read?
Answer: inactive: -0.183

Question: How did the log2 fold change turn out when AHCYL1 (UniProt O43865) was run?
Answer: inactive: 0.034

Question: AFTPH isoform 9 (UniProt Q6ULP2) was tested. Which log2 fold change did it give?
Answer: inactive: 0.005

Question: For ADPGK (UniProt Q9BRR6), which log2 fold change is on record?
Answer: inactive: 0.012

Question: With ADAM10 (UniProt O14672) as the target, how does the log2 fold change read?
Answer: inactive: -0.03

Question: With AFDN isoform 1 (UniProt P55196) as the target, how does the log2 fold change read?
Answer: inactive: -0.001

Question: ACTL8 (UniProt Q9H568) was tested. Which log2 fold change did it give?
Answer: inactive: -0.042

Question: How did the log2 fold change turn out when AK3 (UniProt Q9UIJ7) was run?
Answer: inactive: 0.012

compound: c1ccc([C@@H]2C[C@H]2NC2CCNCC2)cc1; test: as above
Summary of the method: as §1

Question: How did the log2 fold change turn out when AHSA1 (UniProt O95433) was run?
Answer: inactive: 0.01

Question: ACTR3 (UniProt P61158) was tested. Which log2 fold change did it give?
Answer: inactive: 0.018

Question: Which log2 fold change does the source give for ACSL4 (UniProt O60488) here?
Answer: inactive: 0.038

Question: ACSS1 (UniProt Q9NUB1) was tested. Which log2 fold change did it give?
Answer: inactive: -0.037

Question: For AIDA (UniProt Q96BJ3), which log2 fold change is on record?
Answer: inactive: -0.13

Question: AIP (UniProt O00170) was tested. Which log2 fold change did it give?
Answer: inactive: 0.125

Question: With AHSP (UniProt Q9NZD4) as the target, how does the log2 fold change read?
Answer: inactive: 0.239

Question: How did the log2 fold change turn out when AHCY (UniProt P23526) was run?
Answer: inactive: 0

Question: With ACTR3B (UniProt Q9P1U1) as the target, how does the log2 fold change read?
Answer: inactive: -0.055

Question: How did the log2 fold change turn out when ADD1 isoform 4 (UniProt P35611) was run?
Answer: inactive: -0.571

Question: With ADPRM (UniProt Q3LIE5) as the target, how does the log2 fold change read?
Answer: inactive: -0.031

Question: How did the log2 fold change turn out when AFDN (UniProt J3KN01) was run?
Answer: inactive: 0.025

Question: How did the log2 fold change turn out when ACSL5 isoform 3 (UniProt Q9ULC5) was run?
Answer: inactive: 0.067

Question: Which log2 fold change does the source give for AKR7A2 (UniProt O43488) here?
Answer: inactive: 0.025

Question: For ACTB, A0A2R8YGF8, which log2 fold change is on record?
Answer: inactive: 0.188

Question: How did the log2 fold change turn out when AKR1B1 (UniProt P15121) was run?
Answer: inactive: -0.049

Question: ACTN2, A0A494C031 was tested. Which log2 fold change did it give?
Answer: inactive: 0.007

Question: For ADD1 isoform 3 (UniProt P35611), which log2 fold change is on record?
Answer: inactive: 0.015

Question: How did the log2 fold change turn out when ACYP2 (UniProt P14621) was run?
Answer: inactive: 0.118

Question: AGGF1 (UniProt Q8N302) was tested. Which log2 fold change did it give?
Answer: inactive: -0.149

Question: Which log2 fold change does the source give for AIFM2 (UniProt Q9BRQ8) here?
Answer: inactive: -0.1

Question: For ADAM15 (UniProt Q13444), which log2 fold change is on record?
Answer: inactive: -0.015

Question: With AHCYL1 (UniProt O43865) as the target, how does the log2 fold change read?
Answer: inactive: 0.006

Question: With AFTPH isoform 9 (UniProt Q6ULP2) as the target, how does the log2 fold change read?
Answer: inactive: -0.027

Question: ADPGK (UniProt Q9BRR6) was tested. Which log2 fold change did it give?
Answer: inactive: -0.014

Question: Which log2 fold change does the source give for ADAM10 (UniProt O14672) here?
Answer: inactive: -0.058

Question: With AFDN isoform 1 (UniProt P55196) as the target, how does the log2 fold change read?
Answer: inactive: 0.044

Question: With ACTL8 (UniProt Q9H568) as the target, how does the log2 fold change read?
Answer: inactive: 0.013

Question: Which log2 fold change does the source give for AK3 (UniProt Q9UIJ7) here?
Answer: inactive: 0.016
